Measurements published in article PMC12080386.
Changes are numbered by the printed parent chain. These are yes or no findings as the source states them, for the method shown. Binding seen in cells or lysates may run through a third protein. Some results given as binding are weak or reduced against the parent protein; the word gives no strength. For some of these results: Where a sequence is shown, tags or fusion partners need not be part of it.

Experiments:
SIRT4-HA (human) = target: T1, SIRT4-HA (human) (UniProt Q9Y6E7); assay: co-IP; 293FT cells transiently transfected with SIRT4-HA and MCCC2-Flag; anti-HA or anti-Flag M2 affinity gel, overnight at 4 °C; Western blot
T1 sequence: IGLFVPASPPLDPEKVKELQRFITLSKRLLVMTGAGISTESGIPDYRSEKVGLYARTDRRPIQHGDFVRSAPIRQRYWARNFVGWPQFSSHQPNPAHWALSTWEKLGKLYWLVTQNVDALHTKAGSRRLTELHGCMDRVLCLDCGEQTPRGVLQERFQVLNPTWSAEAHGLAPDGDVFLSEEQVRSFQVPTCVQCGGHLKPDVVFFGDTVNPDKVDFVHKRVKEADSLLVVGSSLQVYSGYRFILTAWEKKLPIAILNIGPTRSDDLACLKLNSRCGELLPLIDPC

MCCC2-Flag (human) = target: T2, MCCC2-Flag (human) (UniProt Q9HCC0); assay: as above
T2 sequence: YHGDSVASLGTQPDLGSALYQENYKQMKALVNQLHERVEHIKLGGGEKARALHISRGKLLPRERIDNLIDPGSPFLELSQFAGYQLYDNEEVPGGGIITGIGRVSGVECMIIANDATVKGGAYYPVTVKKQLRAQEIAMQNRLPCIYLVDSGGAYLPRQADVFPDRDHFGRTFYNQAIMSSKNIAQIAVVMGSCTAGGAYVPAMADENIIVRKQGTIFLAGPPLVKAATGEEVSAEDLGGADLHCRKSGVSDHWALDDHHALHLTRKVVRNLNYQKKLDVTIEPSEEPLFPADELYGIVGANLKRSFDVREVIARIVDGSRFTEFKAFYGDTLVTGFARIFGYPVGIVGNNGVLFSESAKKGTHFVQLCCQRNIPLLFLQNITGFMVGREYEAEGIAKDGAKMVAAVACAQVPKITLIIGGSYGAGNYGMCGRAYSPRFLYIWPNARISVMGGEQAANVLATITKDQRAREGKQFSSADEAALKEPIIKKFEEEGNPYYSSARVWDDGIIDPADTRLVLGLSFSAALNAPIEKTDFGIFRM

[1] = target: T3, SIRT4, endogenous in Hep-12 cells (human (endogenous in Hep-12)) (UniProt Q9Y6E7); assay: co-IP; endogenous proteins in Hep-12 cells; lysis buffer 1% NP-40, 150 mM NaCl, 5 mM EDTA, 50 mM Tris·HCl pH 7.4; antibodies against SIRT4 or MCCC2 or control IgG at 4 °C overnight, protein A/G beads; Western blot
T3 sequence: T1 sequence

[2] = target: T4, 3-methylcrotonyl-CoA carboxylase 2 (MCCC2), endogenous in Hep-12 cells (human (endogenous in Hep-12)) (UniProt Q9HCC0); assay: as above
T4 sequence: T2 sequence

[3] = target: T5, MCCC2^K269R (sgRNA-resistant deacetylated mimetic mutant) (human) (UniProt Q9HCC0); assay: co-IP; MCCC2 immunoprecipitated from endogenous MCCC2-KO cells ectopically expressing MCCC2^WT, MCCC2^K269R or MCCC2^K269Q; Western blot with the antibody against MCCC1
T5 sequence: T2 sequence with K247R

[4] = target: T6, MCCC2^K269Q (sgRNA-resistant acetylated mimetic mutant) (human) (UniProt Q9HCC0); assay: as above
T6 sequence: T2 sequence with K247Q

[5] = target: T7, MCCC2^WT (sgRNA-resistant wild type MCCC2) (human) (UniProt Q9HCC0); assay: as above
T7 sequence: T2 sequence

B1: MCCC2-Flag (enzyme, UniProt Q9HCC0 23-563)
chain: T2 sequence
In the case of B1, the binding (SIRT4-HA (human)) is reported as “binds”.

B2: SIRT4-HA (enzyme, UniProt Q9Y6E7 29-314)
chain: T1 sequence
B2 was tested, and the binding (MCCC2-Flag (human)) was “binds”.

B3: 3-methylcrotonyl-CoA carboxylase 2 (MCCC2), endogenous in Hep-12 cells (enzyme, UniProt Q9HCC0 23-563)
chain: T2 sequence
For B3, the binding [1] was “binds”.

B4: SIRT4, endogenous in Hep-12 cells (enzyme, UniProt Q9Y6E7 29-314)
chain: T1 sequence
In the case of B4, the binding [2] is reported as “binds”.

B5: MCCC1 (methylcrotonyl-CoA carboxylase subunit 1), endogenous in MCCC2-KO HCC cells (enzyme, UniProt Q96RQ3 42-725)
chain: TTATGRNITKVLIANRGEIACRVMRTAKKLGVQTVAVYSEADRNSMHVDMADEAYSIGPAPSQQSYLSMEKIIQVAKTSAAQAIHPGCGFLSENMEFAELCKQEGIIFIGPPPSAIRDMGIKSTSKSIMAAAGVPVVEGYHGEDQSDQCLKEHARRIGYPVMIKAVRGGGGKGMRIVRSEQEFQEQLESARREAKKSFNDDAMLIEKFVDTPRHVEVQVFGDHHGNAVYLFERDCSVQRRHQKIIEEAPAPGIKSEVRKKLGEAAVRAAKAVNYVGAGTVEFIMDSKHNFCFMEMNTRLQVEHPVTEMITGTDLVEWQLRIAAGEKIPLSQEEITLQGHAFEARIYAEDPSNNFMPVAGPLVHLSTPRADPSTRIETGVRQGDEVSVHYDPMIAKLVVWAADRQAALTKLRYSLRQYNIVGLHTNIDFLLNLSGHPEFEAGNVHTDFIPQHHKQLLLSRKAAAKESLCQAALGLILKEKAMTDTFTLQAHDQFSPFSSSSGRRLNISYTRNMTLKDGKNNVAIAVTYNHDGSYSMQIEDKTFQVLGNLYSEGDCTYLKCSVNGVASKAKLIILENTIYLFSKEGSIEIDIPVPKYLSSVSSQETQGGPLAPMTGTIEKVFVKAGDKVKAGDSLMVMIAMKMEHTIKSPKDGTVKKVFYREGAQANRHTPLVEFEEEESDKRESE
In the case of B5, the binding [3] is reported as “binds”, the binding [4] is reported as “binds” and the binding [5] is reported as “binds”.
